In US10179120B2, “Dosage regimen of ferric trimaltol” (Iron Therapeutics Holdings AG, priority 2014, dated 2019):

Test: Example 2: open-label, randomised, single and repeat dose Phase I pharmacokinetic study in subjects with iron deficiency
Type: in vivo, human
Conditions: over time and across dose groups
Description: These studies were primarily pharmacokinetic and conducted in subjects with iron deficiency having active inflammatory disease or acute chronic inflammation. An open-label, randomised, single and repeat dose parallel group Phase I pharmacokinetic study was carried out to evaluate the effect of single and repeated twice daily (bid) oral doses of ST10 at 30 mg, 60 mg and 90 mg for 8 days.
24 subjects with iron deficiency (with or without anaemia) were randomly allocated to one of the three ST10 dose groups as follows:
Group 1: 9 subjects received ST10, 30 mg twice daily for 7 days (days 1-7) plus a final 30 mg dose on the morning of day 8.
Group 2: 8 subjects received ST10, 60 mg twice daily for 7 days (days 1-7) plus a final 60 mg dose on the morning of day 8.
Group 3: 7 subjects received ST10, 90 mg twice daily for 7 days (days 1-7) plus a final 90 mg dose on the morning of day 8.
On day 1, following fasting for at least 1.5-2 hours beforehand, ST10 was administered (30 mg, 60 mg or 90 mg) and blood samples collected over the following 6 h for analysis. […]
Serum concentrations of transferrin, total iron binding capacity (TIBC), ferritin and soluble transferrin receptor; and reticulocyte haemoglobin concentrations (CHr) in whole blood were measured by central laboratories using appropriately validated methods. […]

ferric trimaltol [ST10]
Soluble transferrin receptor, mean concentration: approximately 4 mg/L
Total iron binding capacity, mean concentration: approximately 70 μmol/L
